Laboratory results reported in patent US11384115B2, “Nuclear sulfated oxysterol, potent regulator of lipid homeostasis, for therapy of hypercholesterolemia, hypertriglycerides, fatty liver diseases, and atherosclerosis” (Virginia Commonwealth University, priority 2004, dated 2022).
“Also recorded” adds a separate entry of the source. At least one structure is not confirmed: it was looked up by name or label, or the drawing left a doubt.

Test system: PPARγ
Experiment: PPRE promoter reporter gene-luciferase assay in H441 cells
Format: cell-based, human
Conditions: H441, ACOX-PPRE reporter and PPARγ co-overexpression, 1 μM T0070907
Description: H441 cells were seeded in 96-well plates. When cell density reached 90-95%, the cells were transfected with an expression plasmid as indicated using a lipid-based FuGENE HD transfection reagent according to the manufacture (Roche, Indianapolis, Ind.). A synthetic renilla luciferase reporter, phrG-TK (Promega, Wisconsin, Wis.), was used as a luciferase internal standard. For PPRE reporter gene assay, 50 ng of pGL3-PPRE-acyl-CoA oxidase luciferase reporter, 50 ng of expression plasmid pCMX-PPARγ, and 50 ng of phrG-TK vector (internal standard) were cotransfected as per the manufacture's instruction. […] Luciferase activities were determined using the Dual-Glo Luciferase Assay System according to the manufacturer's protocol (Promega, Wisconsin, Wis.). The amount of luciferase activity was measured using a TopCount NXT Microplate Scintillation and Luminescence Counter (Packard, Meriden, Conn.) and normalized to the amount of phG-TK luciferase activity. Transfections were carried out in triplicate for each sample, and each experiment was repeated three times.

With `CN(CCOc1ccc(CC2SC(=O)NC2=O)cc1)c1ccccn1` (stereo not shown) [rosiglitazone, reference compound] the “PPARγ reporter gene activities in the presence of the antagonist T0070907” value was “lower concentrations of rosiglitazone failed to stimulate the reporter gene activity; also recorded: higher concentrations still could increase the activities”.
